These are yes or no findings as the source states them, for the method shown. In cells and extracts the contact can be indirect. Some entries that bind do so weakly or less than the wild type.
Columns and labels:
[1] = molecular target: lymphocyte function-associated antigen-1 (LFA-1; CD11a/CD18), endogenous in Jurkat T cells (human (endogenous in Jurkat)) (UniProt P20701+P05107); test: co-IP; LFA-1 immunoprecipitated with anti-CD11a antibodies from lysates of Jurkat T cells (shC-transfected or re-expressing WT Ndr2), untreated or stimulated with CD3 antibodies up to 30 min; blots for FLNa, Talin and Kindlin-3; Talin and Kindlin-3 at low levels in resting cells, FLNa declines after stimulation
[2] = molecular target: GST-tagged cytoplasmic domain of CD18 (UniProt P05107); test: pull-down; purified GST-CD18cyt bound to glutathione-sepharose incubated with lysates of HEK 293T cells expressing dsRed, dsRed-tagged FLNa or its mutants, 2 h at 4°C; Western blot; only the target purified
[3] = molecular target: Filamin A (endogenous, Jurkat T cells) (human (endogenous in Jurkat)) (UniProt P21333); test: co-IP; FLNa immunoprecipitated from lysates of Jurkat T cells left untreated or stimulated with CD3 antibodies for the indicated times; blot for LFA-1 and pS2152 FLNa

Protein sequences, listed by entry. Tags and fused reporters are not part of them. Lines headed by an entry give the natural chain unless they say otherwise; changes in a name come on top. Residues count along the entry.
UniProt P20701: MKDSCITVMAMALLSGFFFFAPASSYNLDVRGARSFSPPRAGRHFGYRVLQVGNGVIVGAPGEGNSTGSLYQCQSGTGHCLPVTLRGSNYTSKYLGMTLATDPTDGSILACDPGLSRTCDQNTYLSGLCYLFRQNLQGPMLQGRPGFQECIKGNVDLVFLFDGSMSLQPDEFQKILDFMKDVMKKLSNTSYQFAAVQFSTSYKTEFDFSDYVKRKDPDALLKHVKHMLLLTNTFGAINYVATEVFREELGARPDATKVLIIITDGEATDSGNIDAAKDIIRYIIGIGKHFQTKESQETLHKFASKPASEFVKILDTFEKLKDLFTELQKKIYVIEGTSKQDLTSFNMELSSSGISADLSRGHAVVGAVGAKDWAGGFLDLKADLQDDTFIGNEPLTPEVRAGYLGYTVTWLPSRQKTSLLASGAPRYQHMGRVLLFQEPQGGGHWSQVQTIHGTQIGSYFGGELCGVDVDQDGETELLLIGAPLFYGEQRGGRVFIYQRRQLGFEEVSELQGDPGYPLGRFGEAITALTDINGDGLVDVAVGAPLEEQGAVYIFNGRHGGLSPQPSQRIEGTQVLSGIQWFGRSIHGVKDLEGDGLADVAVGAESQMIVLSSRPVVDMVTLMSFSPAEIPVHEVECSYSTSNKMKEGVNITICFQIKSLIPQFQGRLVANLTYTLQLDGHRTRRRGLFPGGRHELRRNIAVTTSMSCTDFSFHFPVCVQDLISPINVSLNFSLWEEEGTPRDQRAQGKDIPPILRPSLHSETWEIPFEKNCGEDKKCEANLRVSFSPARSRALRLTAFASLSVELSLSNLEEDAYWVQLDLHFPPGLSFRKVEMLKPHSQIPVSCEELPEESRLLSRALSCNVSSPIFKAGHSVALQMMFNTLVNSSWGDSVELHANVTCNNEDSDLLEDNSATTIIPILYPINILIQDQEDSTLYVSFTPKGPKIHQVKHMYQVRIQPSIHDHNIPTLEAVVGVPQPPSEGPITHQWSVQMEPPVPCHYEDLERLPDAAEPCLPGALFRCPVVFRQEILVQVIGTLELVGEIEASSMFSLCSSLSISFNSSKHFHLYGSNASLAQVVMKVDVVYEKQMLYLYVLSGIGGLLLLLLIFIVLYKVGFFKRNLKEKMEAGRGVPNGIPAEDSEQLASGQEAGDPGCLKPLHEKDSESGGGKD
UniProt P05107, residues 724-769: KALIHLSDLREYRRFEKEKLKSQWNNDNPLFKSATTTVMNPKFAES
UniProt P21333: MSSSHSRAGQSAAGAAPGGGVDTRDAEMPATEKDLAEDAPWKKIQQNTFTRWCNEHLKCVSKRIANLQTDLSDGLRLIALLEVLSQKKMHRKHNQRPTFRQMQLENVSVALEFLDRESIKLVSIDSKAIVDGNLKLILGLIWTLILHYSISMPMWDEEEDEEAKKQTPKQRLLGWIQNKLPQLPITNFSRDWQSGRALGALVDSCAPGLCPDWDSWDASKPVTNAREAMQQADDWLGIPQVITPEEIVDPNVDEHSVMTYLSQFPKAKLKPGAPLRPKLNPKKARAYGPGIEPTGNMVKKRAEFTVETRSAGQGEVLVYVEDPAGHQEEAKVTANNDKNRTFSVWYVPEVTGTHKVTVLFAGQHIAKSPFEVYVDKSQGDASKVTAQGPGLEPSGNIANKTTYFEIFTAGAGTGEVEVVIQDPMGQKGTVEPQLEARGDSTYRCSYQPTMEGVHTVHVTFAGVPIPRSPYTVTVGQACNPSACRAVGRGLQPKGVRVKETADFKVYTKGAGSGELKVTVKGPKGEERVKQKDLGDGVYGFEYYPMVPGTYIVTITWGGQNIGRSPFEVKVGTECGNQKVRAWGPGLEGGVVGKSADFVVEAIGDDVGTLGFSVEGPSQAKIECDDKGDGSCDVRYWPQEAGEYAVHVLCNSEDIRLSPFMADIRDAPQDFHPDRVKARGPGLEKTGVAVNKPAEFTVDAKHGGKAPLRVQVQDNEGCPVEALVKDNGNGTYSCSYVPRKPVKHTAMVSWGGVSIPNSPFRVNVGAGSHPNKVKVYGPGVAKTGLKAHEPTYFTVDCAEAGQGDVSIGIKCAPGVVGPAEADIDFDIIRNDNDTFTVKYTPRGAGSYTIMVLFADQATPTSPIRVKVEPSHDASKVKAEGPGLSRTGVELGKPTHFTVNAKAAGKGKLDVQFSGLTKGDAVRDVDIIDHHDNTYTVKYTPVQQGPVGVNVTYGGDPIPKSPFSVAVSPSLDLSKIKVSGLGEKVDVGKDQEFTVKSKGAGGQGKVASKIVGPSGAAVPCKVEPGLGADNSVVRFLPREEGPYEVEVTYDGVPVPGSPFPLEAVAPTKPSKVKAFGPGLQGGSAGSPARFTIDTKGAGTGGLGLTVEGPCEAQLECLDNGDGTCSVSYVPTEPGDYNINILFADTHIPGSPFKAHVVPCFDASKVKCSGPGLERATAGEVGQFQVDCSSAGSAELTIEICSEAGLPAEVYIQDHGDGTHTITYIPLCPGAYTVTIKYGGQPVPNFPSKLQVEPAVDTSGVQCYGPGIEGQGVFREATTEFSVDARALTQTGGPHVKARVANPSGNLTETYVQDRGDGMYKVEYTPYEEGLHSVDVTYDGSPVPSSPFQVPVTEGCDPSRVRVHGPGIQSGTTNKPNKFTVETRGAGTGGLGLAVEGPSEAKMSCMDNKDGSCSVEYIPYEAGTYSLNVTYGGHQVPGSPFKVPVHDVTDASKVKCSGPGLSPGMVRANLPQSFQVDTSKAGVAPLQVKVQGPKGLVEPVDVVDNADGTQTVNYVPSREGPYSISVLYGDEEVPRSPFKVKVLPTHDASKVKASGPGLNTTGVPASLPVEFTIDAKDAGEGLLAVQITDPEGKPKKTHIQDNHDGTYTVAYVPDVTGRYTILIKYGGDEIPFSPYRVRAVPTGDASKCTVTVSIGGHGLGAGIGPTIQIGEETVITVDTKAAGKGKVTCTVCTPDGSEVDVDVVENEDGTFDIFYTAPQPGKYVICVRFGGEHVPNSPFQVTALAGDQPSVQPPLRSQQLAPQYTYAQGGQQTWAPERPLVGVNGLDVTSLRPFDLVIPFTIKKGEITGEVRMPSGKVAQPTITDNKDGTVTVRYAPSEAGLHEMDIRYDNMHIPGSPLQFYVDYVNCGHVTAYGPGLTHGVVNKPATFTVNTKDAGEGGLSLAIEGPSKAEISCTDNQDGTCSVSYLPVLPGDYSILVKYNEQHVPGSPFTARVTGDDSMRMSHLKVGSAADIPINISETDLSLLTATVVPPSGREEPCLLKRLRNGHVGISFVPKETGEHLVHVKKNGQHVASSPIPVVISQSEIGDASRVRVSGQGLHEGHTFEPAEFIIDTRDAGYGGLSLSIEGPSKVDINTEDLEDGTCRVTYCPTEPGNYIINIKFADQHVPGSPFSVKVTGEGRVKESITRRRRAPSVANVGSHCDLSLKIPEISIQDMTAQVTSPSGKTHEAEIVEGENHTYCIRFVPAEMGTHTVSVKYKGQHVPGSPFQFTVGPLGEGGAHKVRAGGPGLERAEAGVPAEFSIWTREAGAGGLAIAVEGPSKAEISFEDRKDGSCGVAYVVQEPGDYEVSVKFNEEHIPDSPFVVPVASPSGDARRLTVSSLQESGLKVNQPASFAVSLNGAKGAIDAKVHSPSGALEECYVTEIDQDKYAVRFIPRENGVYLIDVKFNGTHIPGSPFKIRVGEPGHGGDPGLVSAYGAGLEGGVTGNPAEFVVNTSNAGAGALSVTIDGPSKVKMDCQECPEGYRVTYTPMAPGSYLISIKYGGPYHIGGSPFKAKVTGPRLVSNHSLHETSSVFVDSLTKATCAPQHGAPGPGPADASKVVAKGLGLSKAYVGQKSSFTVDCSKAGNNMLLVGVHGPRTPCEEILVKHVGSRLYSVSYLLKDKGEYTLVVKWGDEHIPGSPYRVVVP

## Filamin A (endogenous, Jurkat T cells) (from UniProt P21333 1-2647)
[1]
  binding: binds

## dsRed-tagged FLNa S2152A mutant (from UniProt P21333 1-2647)
[2]
  binding: binds

## dsRed-tagged FLNa S2152E mutant (from UniProt P21333 1-2647)
[2]
  binding: no binding

## dsRed-tagged wild type Filamin A (from UniProt P21333 1-2647)
[2]
  binding: binds

## lymphocyte function-associated antigen-1 (LFA-1; CD11a/CD18), endogenous in Jurkat T cells (from UniProt P20701 26-1170; P05107 23-769) (complex)
[3]
  binding: binds

From paper PMC6290345
